Results as given in PMC5996148.
This is one part of the list. For some assays here: The source does not settle which construct or isoform was used.

Amino acid sequences for entries named in this document (tags omitted). A change or cut given only in a name is not applied to a line headed by its entry.
UniProt P08185: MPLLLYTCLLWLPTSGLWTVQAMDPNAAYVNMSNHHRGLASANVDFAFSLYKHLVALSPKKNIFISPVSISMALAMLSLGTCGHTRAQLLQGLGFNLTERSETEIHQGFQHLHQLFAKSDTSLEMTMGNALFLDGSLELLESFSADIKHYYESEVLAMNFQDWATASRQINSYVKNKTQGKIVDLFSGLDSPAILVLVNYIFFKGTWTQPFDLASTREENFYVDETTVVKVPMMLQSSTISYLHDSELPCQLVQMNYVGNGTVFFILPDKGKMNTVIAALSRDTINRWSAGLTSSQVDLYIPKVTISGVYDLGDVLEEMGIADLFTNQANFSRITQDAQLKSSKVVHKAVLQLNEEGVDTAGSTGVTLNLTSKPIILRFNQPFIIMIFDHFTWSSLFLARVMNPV

Experiments:
Test in all cases: protein microarray (ProtoArray v5.0), streptavidin-Alexa Fluor 647
Conditions in all cases: 3'-biotin; 20 mM Tris (pH 7.5), 5 mM MgCl2, 100 mM KCl, 0.1% Tween-20, A/T-rich and random oligonucleotide blockers; temperature not stated; high values mean tight binding
SERF1A (human) = tested on: SERF1A (human)
SERPINA6 = SERPINA6 (UniProt P08185)
SERPINA6 (human) = tested on: SERPINA6 (human)
SERPINA7 (human) = tested on: SERPINA7 (human)
SERPINB1 (human) = tested on: SERPINB1 (human)
SERPINB2 (human) = tested on: SERPINB2 (human)
SERPINB6 (human) = tested on: SERPINB6 (human)
SERPINB7 (human) = tested on: SERPINB7 (human)
SERPINB9 (human) = tested on: SERPINB9 (human)
SERPINF1 = molecular target: T1, SERPINF1 (UniProt P36955)
T1 sequence: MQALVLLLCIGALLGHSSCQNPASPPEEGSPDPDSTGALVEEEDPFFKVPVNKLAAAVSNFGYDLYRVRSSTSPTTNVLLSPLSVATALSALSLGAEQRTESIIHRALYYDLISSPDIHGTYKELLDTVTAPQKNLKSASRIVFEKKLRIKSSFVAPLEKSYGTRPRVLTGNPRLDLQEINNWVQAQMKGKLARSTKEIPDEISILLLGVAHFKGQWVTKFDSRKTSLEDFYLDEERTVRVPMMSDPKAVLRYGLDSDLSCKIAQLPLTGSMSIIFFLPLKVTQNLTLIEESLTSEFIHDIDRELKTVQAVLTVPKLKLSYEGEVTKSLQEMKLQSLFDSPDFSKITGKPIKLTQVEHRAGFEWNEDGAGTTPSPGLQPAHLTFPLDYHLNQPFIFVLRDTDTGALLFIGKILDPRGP

SF3B3 (human) = tested on: SF3B3 (human)
SFT2D1 (human) = tested on: SFT2D1 (human)
SFXN1 (human) = tested on: SFXN1 (human)
SFXN3 (human) = tested on: SFXN3 (human)
SGK2 (human) = tested on: SGK2 (human)
SGTA (human) = tested on: SGTA (human)
SH2B1 (human) = tested on: SH2B1 (human)
SIRPG (human) = tested on: SIRPG (human)
SIVA1 (human) = tested on: SIVA1 (human)
SKIL (human) = tested on: SKIL (human)

GGTGACAGGGGTATGGGGAGGGG [G4-2 biotinylated (Ct1)]
binding signal (SERF1A (human)): 4.23 z-score | binding signal (SERPINA6): -0.365 z-score | binding signal (SERPINA6 (human)): -0.391 z-score | binding signal (SERPINA7 (human)): -0.389 z-score | binding signal (SERPINB1 (human)): -0.395 z-score | binding signal (SERPINB2 (human)): -0.38 z-score | binding signal (SERPINB6 (human)): -0.365 z-score | binding signal (SERPINB7 (human)): -0.366 z-score | binding signal (SERPINB9 (human)): -0.357 z-score | binding signal (SERPINF1): 5.71 z-score | binding signal (SF3B3 (human)): -0.357 z-score | binding signal (SFT2D1 (human)): -0.373 z-score | binding signal (SFXN1 (human)): -0.373 z-score | binding signal (SFXN3 (human)): -0.395 z-score | binding signal (SGK2 (human)): -0.37 z-score | binding signal (SGTA (human)): -0.389 z-score | binding signal (SH2B1 (human)): -0.384 z-score | binding signal (SIRPG (human)): -0.359 z-score | binding signal (SIVA1 (human)): -0.372 z-score | binding signal (SKIL (human)): -0.357 z-score
